Our source for the log2 fold change values is the supplement of paper PMC10849652.

The chains behind the UniProt entries cited, without tags or fusion partners. Where a name states a change or a piece, a line headed by the entry shows the natural chain unless it says otherwise.
UniProt Q09028, whole entry, looked up: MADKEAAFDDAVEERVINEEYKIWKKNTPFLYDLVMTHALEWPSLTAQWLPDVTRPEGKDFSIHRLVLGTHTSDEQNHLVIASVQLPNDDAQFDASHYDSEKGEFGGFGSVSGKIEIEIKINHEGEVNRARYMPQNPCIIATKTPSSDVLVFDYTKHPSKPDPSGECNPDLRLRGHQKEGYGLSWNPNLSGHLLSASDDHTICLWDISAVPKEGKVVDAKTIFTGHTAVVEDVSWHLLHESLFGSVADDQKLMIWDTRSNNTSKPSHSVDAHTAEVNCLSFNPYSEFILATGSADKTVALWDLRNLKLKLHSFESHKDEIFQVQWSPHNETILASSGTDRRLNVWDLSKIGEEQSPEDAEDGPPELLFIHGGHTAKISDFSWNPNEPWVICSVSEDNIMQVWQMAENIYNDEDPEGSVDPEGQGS
UniProt Q96PK6: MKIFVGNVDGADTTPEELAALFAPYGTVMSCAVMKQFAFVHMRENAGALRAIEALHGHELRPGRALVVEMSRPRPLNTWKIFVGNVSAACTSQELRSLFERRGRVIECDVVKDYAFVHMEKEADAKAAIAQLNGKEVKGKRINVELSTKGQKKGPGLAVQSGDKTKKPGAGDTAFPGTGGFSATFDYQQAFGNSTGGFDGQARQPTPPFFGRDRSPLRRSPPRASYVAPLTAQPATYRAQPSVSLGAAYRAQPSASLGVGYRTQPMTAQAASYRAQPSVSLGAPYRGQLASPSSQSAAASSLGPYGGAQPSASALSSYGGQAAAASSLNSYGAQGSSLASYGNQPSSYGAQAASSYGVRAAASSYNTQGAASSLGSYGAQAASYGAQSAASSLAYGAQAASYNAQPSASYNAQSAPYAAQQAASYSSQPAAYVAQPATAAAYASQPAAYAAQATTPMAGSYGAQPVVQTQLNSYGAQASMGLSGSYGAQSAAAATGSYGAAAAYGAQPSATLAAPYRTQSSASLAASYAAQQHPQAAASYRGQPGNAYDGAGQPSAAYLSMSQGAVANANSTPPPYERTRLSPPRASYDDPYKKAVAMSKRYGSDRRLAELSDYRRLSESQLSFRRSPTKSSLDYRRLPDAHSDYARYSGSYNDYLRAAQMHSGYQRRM
UniProt P20337: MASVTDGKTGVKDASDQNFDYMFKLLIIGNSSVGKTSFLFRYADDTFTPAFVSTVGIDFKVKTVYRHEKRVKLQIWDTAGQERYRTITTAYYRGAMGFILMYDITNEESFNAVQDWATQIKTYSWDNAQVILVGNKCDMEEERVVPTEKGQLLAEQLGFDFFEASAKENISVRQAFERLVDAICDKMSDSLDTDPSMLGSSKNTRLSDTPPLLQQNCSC
UniProt P28749: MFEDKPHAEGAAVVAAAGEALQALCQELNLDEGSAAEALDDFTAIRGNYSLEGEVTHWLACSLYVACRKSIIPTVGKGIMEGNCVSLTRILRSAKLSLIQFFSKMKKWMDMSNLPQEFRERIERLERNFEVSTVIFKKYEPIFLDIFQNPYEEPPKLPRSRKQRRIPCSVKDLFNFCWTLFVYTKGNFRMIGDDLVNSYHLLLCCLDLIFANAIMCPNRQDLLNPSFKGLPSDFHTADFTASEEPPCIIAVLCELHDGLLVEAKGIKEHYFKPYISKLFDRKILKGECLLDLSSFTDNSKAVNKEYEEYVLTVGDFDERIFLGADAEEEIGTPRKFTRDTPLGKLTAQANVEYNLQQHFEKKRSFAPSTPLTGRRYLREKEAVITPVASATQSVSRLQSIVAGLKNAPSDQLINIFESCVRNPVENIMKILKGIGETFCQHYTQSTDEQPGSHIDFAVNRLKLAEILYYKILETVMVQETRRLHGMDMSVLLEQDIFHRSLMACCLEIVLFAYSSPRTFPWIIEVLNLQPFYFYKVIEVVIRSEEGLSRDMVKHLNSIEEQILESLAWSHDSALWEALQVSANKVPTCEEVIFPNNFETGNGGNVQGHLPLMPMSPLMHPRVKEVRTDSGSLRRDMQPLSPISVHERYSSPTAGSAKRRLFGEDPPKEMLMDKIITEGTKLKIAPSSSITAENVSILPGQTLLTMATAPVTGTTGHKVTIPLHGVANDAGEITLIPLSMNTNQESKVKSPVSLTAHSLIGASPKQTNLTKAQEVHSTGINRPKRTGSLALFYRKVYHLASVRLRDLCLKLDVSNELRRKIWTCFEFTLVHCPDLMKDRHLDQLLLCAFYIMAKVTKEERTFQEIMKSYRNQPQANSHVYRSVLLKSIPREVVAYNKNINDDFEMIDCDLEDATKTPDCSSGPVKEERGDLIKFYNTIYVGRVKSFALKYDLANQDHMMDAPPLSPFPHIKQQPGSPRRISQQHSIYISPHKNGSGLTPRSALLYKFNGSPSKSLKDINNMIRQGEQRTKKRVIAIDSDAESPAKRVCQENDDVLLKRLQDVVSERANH
UniProt Q9H6Z4: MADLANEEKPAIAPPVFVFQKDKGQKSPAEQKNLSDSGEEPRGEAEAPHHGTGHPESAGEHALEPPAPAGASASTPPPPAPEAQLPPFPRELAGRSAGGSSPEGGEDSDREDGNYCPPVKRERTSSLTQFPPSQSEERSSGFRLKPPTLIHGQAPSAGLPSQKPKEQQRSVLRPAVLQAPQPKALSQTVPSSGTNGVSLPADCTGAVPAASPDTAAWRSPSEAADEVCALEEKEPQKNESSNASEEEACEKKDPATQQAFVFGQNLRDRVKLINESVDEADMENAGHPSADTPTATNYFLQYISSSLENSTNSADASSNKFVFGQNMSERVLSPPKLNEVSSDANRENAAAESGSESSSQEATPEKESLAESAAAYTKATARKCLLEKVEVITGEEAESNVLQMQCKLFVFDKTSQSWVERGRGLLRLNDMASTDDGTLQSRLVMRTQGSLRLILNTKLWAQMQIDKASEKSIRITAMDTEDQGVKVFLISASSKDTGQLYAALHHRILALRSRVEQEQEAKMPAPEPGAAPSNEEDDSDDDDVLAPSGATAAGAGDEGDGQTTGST
UniProt P20936: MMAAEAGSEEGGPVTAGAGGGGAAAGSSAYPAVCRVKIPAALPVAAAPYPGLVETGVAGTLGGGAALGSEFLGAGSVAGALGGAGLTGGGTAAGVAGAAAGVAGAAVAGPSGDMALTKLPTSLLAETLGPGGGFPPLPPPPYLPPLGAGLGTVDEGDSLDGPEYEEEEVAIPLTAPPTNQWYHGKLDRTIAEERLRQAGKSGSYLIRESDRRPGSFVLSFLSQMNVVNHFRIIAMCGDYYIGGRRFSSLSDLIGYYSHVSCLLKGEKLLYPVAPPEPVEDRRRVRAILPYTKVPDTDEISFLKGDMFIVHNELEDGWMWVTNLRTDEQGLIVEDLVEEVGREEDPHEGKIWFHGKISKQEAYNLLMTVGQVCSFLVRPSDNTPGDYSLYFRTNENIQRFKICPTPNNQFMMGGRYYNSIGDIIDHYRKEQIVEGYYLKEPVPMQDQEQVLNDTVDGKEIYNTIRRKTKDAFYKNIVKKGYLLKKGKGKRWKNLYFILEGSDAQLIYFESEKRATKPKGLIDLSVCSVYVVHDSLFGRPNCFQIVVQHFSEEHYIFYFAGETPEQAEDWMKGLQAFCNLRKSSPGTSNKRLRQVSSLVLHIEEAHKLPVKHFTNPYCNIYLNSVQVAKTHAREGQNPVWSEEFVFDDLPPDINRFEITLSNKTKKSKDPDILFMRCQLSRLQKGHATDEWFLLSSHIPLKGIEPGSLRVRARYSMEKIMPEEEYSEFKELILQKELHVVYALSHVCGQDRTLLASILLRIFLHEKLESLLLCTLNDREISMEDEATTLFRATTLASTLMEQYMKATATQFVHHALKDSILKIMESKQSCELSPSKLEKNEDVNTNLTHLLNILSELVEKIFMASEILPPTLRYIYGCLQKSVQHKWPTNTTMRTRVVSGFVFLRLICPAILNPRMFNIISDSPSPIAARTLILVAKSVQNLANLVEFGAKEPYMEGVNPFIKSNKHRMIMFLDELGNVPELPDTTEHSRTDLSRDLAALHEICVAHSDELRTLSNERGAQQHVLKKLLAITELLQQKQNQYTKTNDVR
UniProt Q99708: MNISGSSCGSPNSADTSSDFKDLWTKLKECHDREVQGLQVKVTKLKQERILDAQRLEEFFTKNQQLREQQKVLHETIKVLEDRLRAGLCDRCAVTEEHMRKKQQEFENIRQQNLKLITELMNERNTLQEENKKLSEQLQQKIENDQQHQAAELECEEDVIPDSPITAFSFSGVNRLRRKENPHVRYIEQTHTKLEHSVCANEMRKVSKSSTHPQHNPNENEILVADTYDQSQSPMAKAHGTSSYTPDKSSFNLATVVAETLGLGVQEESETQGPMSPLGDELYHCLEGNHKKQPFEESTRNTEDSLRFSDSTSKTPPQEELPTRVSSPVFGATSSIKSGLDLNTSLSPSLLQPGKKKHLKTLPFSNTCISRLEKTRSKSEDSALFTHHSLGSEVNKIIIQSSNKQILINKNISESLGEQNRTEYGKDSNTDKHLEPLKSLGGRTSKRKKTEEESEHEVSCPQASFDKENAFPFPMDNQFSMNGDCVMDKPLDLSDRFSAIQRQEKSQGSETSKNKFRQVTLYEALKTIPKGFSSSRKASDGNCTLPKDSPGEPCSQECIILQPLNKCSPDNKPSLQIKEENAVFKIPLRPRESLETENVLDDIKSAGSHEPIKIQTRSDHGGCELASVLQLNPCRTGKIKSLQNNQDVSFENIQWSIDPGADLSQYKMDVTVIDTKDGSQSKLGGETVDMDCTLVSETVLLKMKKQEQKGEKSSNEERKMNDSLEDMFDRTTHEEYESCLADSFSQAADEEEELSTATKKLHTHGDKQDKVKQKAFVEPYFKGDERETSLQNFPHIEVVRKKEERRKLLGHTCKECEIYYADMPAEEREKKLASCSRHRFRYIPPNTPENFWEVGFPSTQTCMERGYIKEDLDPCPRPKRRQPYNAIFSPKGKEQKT
UniProt Q9BYM8: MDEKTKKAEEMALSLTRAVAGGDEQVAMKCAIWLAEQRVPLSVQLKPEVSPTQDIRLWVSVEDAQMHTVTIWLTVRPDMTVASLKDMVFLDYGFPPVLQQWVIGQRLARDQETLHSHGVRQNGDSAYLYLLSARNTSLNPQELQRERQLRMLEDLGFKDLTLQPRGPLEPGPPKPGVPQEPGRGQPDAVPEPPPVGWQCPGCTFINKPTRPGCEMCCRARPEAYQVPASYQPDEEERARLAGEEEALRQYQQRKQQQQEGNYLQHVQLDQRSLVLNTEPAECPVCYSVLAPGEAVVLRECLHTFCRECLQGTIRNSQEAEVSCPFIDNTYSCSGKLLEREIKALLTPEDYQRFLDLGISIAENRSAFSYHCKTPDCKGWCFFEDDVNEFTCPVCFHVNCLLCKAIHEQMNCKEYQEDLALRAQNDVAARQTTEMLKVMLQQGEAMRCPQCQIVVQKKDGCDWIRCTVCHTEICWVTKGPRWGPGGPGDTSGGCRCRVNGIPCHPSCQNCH
UniProt O75771: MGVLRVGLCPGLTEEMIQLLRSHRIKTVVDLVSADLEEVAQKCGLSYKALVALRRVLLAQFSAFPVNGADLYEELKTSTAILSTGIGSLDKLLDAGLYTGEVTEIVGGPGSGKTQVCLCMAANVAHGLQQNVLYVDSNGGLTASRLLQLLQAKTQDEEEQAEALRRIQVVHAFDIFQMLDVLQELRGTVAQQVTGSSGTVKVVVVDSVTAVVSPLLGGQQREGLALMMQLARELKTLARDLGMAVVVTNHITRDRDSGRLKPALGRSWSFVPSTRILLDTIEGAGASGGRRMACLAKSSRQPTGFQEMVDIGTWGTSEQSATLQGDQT
UniProt O00194: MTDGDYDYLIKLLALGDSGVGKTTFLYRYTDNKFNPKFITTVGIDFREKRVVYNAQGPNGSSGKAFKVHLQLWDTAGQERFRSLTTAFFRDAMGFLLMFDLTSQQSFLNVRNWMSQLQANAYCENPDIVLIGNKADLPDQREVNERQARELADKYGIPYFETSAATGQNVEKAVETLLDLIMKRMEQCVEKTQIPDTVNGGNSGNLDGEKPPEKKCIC
UniProt Q86WH2: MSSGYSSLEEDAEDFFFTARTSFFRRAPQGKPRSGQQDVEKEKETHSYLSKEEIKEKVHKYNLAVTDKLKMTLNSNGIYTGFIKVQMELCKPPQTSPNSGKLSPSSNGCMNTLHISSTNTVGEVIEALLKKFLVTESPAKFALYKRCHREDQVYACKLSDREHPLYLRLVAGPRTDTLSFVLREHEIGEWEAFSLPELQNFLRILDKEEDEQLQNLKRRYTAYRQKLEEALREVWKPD
UniProt O95716: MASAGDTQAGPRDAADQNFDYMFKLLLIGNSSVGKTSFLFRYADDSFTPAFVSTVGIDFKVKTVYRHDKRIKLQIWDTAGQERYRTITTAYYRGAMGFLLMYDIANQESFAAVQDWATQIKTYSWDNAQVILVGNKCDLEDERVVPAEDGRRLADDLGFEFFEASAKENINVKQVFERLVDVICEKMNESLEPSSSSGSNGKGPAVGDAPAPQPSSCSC

The other results are listed elsewhere or left out.

Compound in this test: C#Cc1cccc(Nc2ncnc3cc(OCCOC)c(OCCOC)cc23)c1 [erlotinib]
As to the kind of experiment: log2 fold change, soluble protein after heating vs DMSO (PISA); higher = thermal stabilisation; K562 cells, 10 uM, 30 min; active = over 0.2 and 3.5 SD of the protein, either way, in both replicates (recomputed). A digest of the protocol:
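For each measurement, 10 μM compound was applied for 30 min to K562 cells at 2×10^6 cells/mL. Aliquots were heated for 3 min across 48°C-58°C, pooled, and extracted in PBS with 0.5% NP-40 at 4°C; the supernatant after 21,000xg for 90 min was soluble protein. This was quantified by TMTpro 16plex LC-MS/MS with channel sums equalised, and thermal stability was reported relative to control samples from duplicates, on a log2 fold-change scale.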
With RBBP4 isoform 2 (UniProt Q09028), the log2 fold change is inactive: 0.003. On to RBM14 (UniProt Q96PK6), for which the log2 fold change is inactive: 0.086. The same measure for RAB28 (UniProt P51157): inactive: 0.197; for RAB3B (UniProt P20337): inactive: 0; for RBL1 (UniProt P28749): inactive: 0.215. Take RANBP3 isoform 2 (UniProt Q9H6Z4): the log2 fold change was inactive: 0.095. For RAI1 (UniProt Q7Z5J4), the log2 fold change is inactive: 0.139. For RABEP2 (UniProt Q9H5N1), the log2 fold change is inactive: 0.069.

On to RASA1 (UniProt P20936), for which the log2 fold change was inactive: 0.116. For RBM23 (UniProt Q86U06), the log2 fold change is inactive: -0.163. In the case of RBBP8 isoform 2 (UniProt Q99708), the log2 fold change is inactive: -0.073. For the target RBCK1 (UniProt Q9BYM8), the log2 fold change is inactive: 0.026. For RAD51D (UniProt O75771), the log2 fold change was inactive: -0.023. Consider RAB27B (UniProt O00194), for which the log2 fold change is inactive: -0.007. As for RAPGEF5, A0A590UJR0, the figure is inactive: 0.534; as for RASSF3 (UniProt Q86WH2), inactive: 0.032. Take RAB3D (UniProt O95716): the log2 fold change is inactive: -0.094.
